From publication doi:10.1101/2020.09.01.276469
No constants are given. Whether binding was seen depends on the method and setting. Some results given as binding are weak or reduced against the parent protein; the word gives no strength.

By UniProt entry, the sequences of proteins in these tests, tags left out.
UniProt Q6NUF4, whole entry: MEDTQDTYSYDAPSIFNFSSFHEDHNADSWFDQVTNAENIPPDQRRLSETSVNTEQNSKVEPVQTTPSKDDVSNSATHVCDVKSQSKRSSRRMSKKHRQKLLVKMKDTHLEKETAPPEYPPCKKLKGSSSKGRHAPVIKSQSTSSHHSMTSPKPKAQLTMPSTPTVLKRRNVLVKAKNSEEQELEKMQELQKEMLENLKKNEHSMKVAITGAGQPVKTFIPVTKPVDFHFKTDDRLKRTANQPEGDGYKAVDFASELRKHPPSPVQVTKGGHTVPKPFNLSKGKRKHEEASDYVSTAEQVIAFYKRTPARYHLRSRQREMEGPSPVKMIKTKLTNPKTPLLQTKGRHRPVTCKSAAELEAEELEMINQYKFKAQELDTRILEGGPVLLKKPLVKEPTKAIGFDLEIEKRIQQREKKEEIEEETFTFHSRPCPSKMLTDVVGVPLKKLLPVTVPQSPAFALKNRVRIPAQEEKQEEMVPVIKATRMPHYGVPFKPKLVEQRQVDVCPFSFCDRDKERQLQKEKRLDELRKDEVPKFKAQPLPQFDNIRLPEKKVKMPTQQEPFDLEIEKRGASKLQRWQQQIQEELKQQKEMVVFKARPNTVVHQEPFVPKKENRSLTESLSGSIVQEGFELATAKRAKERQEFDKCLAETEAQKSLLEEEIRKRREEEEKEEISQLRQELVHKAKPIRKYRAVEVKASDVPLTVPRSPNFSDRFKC
UniProt P52297, whole entry: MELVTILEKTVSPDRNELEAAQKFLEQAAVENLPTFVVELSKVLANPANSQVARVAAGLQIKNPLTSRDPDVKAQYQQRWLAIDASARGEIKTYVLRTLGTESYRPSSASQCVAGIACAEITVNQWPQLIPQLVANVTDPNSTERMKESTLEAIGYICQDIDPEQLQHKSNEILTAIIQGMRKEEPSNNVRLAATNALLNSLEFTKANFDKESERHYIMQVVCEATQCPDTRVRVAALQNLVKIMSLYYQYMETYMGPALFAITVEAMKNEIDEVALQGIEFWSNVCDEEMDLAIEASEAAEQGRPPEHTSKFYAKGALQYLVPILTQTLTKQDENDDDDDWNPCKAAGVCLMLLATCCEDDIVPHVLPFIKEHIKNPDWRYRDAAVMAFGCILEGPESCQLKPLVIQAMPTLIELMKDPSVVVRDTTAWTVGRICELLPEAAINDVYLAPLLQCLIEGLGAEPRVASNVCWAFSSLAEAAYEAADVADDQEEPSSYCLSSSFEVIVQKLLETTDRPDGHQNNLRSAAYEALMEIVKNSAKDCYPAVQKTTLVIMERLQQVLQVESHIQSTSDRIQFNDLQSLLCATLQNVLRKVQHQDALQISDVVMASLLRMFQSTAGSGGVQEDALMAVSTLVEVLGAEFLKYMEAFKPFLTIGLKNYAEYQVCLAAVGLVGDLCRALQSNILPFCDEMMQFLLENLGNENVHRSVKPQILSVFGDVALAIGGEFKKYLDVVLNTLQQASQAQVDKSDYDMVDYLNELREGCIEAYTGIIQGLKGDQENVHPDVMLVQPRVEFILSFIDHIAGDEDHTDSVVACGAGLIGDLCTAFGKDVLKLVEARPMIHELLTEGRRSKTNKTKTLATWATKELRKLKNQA

How the values were obtained:
[1] = target: Targeting Protein for XKlp2 (TPX2), full length, GFP-tagged (Xenopus laevis) (UniProt Q6NUF4); experiment: SEC
[2] = target: Targeting Protein for XKlp2 (TPX2), full length, GFP-tagged (Xenopus laevis) (UniProt Q6NUF4); experiment: SEC-MALS

binding [1]: binds weakly
binding [2]: binds weakly
Substance: importin-β (from UniProt P52297 1-876)
